Experimental data as given in article PMC8910471, “The Finely Coordinated Action of SSB and NurA/HerA Complex Strictly Regulates the DNA End Resection Process in Saccharolobus solfataricus”.
Results are given in words; binding and its absence hold for the method and conditions named.

Target: T1, NurA from Saccharolobus solfataricus, labeled with fluorescein 5(6)-isothiocyanate (S. solfataricus) (UniProt Q97WH1)
T1 sequence (chain, labeled with fluorescein 5(6)-isothiocyanate (site not stated)): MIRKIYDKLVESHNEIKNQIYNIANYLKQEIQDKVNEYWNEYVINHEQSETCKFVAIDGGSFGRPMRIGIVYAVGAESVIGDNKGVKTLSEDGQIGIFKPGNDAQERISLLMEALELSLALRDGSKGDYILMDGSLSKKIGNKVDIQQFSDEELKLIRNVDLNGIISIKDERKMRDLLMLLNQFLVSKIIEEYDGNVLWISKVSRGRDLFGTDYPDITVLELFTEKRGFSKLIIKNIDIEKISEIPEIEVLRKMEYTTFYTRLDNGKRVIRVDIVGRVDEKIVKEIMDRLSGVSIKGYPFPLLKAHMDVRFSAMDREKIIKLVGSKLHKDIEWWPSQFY
Assay: FRET or BRET; steady-state fluorescence of purified labeled proteins in solution: NurA labeled with fluorescein 5(6)-isothiocyanate (donor) with increasing concentrations of the partner labeled with rhodamine B (acceptor); excitation 495 nm, emission 500-600 nm, read at 570 nm; buffer 1 mM sodium phosphate pH 7.0 or 10 mM sodium phosphate pH 8.0 (methods); both purified

binding: no binding
B1: single-strand binding protein SSB from Saccharolobus solfataricus, labeled with rhodamine B (protein, UniProt Q97W73 1-148)
chain: MEEKVGNLKPNMESVNVTVRVLEASEARQIQTKNGVRTISEAIVGDETGRVKLTLWGKHAGSIKEGQVVKIENAWTTAFKGQVQLNAGSKTKIAEASEDGFPESSQIPENTPTAPQQMRGGGRGFRGGGRRYGRRGGRRQENEEGEEE
modifications: labeled with rhodamine B (site not stated)
